For the experiment, the system named is nude mice, LOX melanoma ip, survival T/C. The experiment can be described thus: NCI In Vivo Anticancer Drug Screen. Data for tumor model Human Amelanotic Melanoma (LOX) (intraperitoneal) in NU/NU BALB/C (nude) mice. The following applies: T/C endpoint: median survival time, higher T/C = longer survival. The method, then:
The antitumor activity of compounds was measured in mice bearing transplantable tumors. Survival or tumor size were measured and the results are expressed as the measurement made in the treated group (T) divided by the measurement made in the vehicle treated control group (C). The tumor model used in this assay is Human Amelanotic Melanoma (LOX) (intraperitoneal) in NU/NU BALB/C (nude) mice

Where [1] appears, read: dose: 50.0 mg/kg/injection, schedule: Q04DX003 (ip), vehicle: saline with Tween-80.
Setting [2] is: dose: 25.0 mg/kg/injection, schedule: Q04DX003 (ip), vehicle: saline with Tween-80.
Setting [3] is: dose: 100.0 mg/kg/injection, schedule: Q04DX003 (ip), vehicle: saline with Tween-80.
The mark [4] stands for this setting: dose: 400.0 mg/kg/injection, schedule: Q04DX003 (ip), vehicle: saline with Tween-80.
[5] abbreviates: dose: 150.0 mg/kg/injection, schedule: Q04DX003 (ip), vehicle: saline with Tween-80.
Setting [6] is: dose: 300.0 mg/kg/injection, schedule: Q04DX003 (ip), vehicle: saline with Tween-80.
[7] abbreviates: dose: 600.0 mg/kg/injection, schedule: Q04DX003 (ip), vehicle: saline with Tween-80.
[8] abbreviates: dose: 1200.0 mg/kg/injection, schedule: Q04DX003 (ip), vehicle: saline with Tween-80.

The list does not hold the whole screen: it is rich in T/C values a quarter to a half above the control, in often repeated tests (any T/C) and in doses without a T/C. Further doses and runs are listed elsewhere. T/C gives the treated animals as a percentage of the vehicle group. Some entries give survivors of the animals treated and no T/C: the source holds a T/C of zero for them, seemingly a mark for toxic or unscored doses. Some doses without a T/C left all or most animals alive at the check, yet need not have been tolerated: the source hardly ever lists a survival T/C far under the control, and the zero likely stands for such cases as well. Survivors were counted at the toxicity check, usually on the fifth day, unless a day is given; later deaths do not show. Schedule codes are those of the source, read here as Q, the interval in days (D) or hours (H), X, the number of doses. Some entries were tested several times; the results are listed from low to high. For survival time, the PubChem record calls one and a half times the control and up active, and a quarter to a half above the control has no call in these data; cut-offs in other NCI protocols can differ. Some T/C values are followed by the survivors on the day toxicity was checked, most often the fifth; without a count, all were alive then.

For the compound `O=C(O)c1cc(C(=O)O)c(C(=O)O)cc1C(=O)O.[NH2-].[NH2-].[NH2-].[NH2-].[Pt+2].[Pt+2]`, where the note is “dose: 100.0 mg/kg/injection, schedule: Q04DX003 (ip), vehicle: water”, the survivor count was 1 of 6 on day 10.

Take `CCOC(=O)Nc1cc2c(c(N)n1)N=C(c1ccc3ccccc3c1)CN2`: where the note is “dose: 111.11 mg/kg/injection, schedule: Q04DX003 (ip), vehicle: saline with Tween-80”, the T/C was 141 % of control. Also, the survivor count (dose: 309.0 mg/kg/injection, schedule: Q04DX003 (ip), vehicle: saline with Tween-80) is 2 of 6 on day 10.

Turning to `CO[C@@]12[C@@H]3N[C@@H]3CN1C1=C(C(=O)C(NCCc3ccccn3)=C(C)C1=O)[C@@H]2COC(N)=O`, the T/C (dose: 0.78 mg/kg/injection, schedule: Q04DX003 (ip), vehicle: saline with Tween-80) is 146 % of control. Besides, the survivor count under setting [1] is 6 of 6 on day 10.

Take `COc1cc(NCc2ccc3nc(N)nc(N)c3c2C)cc(OC)c1OC`: the T/C (dose: 120.0 mg/kg/injection, schedule: Q04DX003 (ip), vehicle: Klucel (hydroxypropylcellulose) (HPC)) was 144 % of control.

`O=C1C=CC(=CC=C2C=CN(CCCCCCCCCCCO)C=C2)C=C1`: the T/C was 134 % of control under setting [2] and 110, 132, 142, 163 % of control under setting [3]. In addition, the survivor count under setting [4] was 0 of 6 on day 10.

As to `NC(Cc1ccc(N(CCCl)Cc2ccccc2)cc1)C(=O)O` (configuration not stated), the T/C was 128 % of control (dose: 43.0 mg/kg/injection, schedule: Q04DX003 (ip), vehicle: saline with Tween-80); 127 % of control (dose: 72.0 mg/kg/injection, schedule: Q04DX003 (ip), vehicle: saline with Tween-80); 132 % of control under setting [3]; 144 % of control (dose: 120.0 mg/kg/injection, schedule: Q04DX003 (ip), vehicle: saline with Tween-80). The survivor count runs as follows: (dose: 333.0 mg/kg/injection, schedule: Q04DX003 (ip), vehicle: saline with Tween-80) 3 of 6 on day 10; under setting [4], 3 of 6 on day 10.

On to `Cc1ccc2nc(-c3ccc4nc(-c5ccc(N=Nc6ccc(-c7nc8ccc(-c9nc%10ccc(C)c(S(=O)(=O)O)c%10s9)cc8s7)cc6)cc5)sc4c3)sc2c1S(=O)(=O)O`, for which the survivor count is, setting by setting: (dose: 300.0 mg/kg/injection, schedule: Q04DX003 (ip), vehicle: suspension in saline) 5 of 6 on day 10; (dose: 600.0 mg/kg/injection, schedule: Q04DX003 (ip), vehicle: suspension in saline) 2 of 6 on day 10; (dose: 1200.0 mg/kg/injection, schedule: Q04DX003 (ip), vehicle: suspension in saline) 0 of 6 on day 10.

As to `C=COC(=O)C(Cc1ccccc1)NC(=O)OCc1ccccc1` (configuration not stated), the survivor count by setting is: under setting [5], 6 of 6 on day 10; under setting [6], 6 of 6 on day 10; under setting [7], 5 of 6 on day 10; under setting [8], 2 of 6 on day 10.

`CCN(CC)CC(=O)O[C@]1(CC)C(=O)OCc2c1cc1n(c2=O)Cc2cc3ccccc3nc2-1`: the survivor count is given as 2 of 6 on day 10 (dose: 37.5 mg/kg/injection, schedule: Q04DX003 (ip), vehicle: water); 0 of 6 on day 10 (dose: 75.0 mg/kg/injection, schedule: Q04DX003 (ip), vehicle: water); 0 of 6 on day 10 (dose: 150.0 mg/kg/injection, schedule: Q04DX003 (ip), vehicle: water); 0 of 6 on day 10 (dose: 300.0 mg/kg/injection, schedule: Q04DX003 (ip), vehicle: water).

In the case of `Cn1c2ccccc2c2ccc3c(c21)C(=O)C=CC3=O`, under “dose: 75.0 mg/kg/injection, schedule: Q04DX003 (ip), vehicle: saline with Tween-80”, the T/C was 127 % of control. Moreover, the survivor count was 3 of 6 on day 10 under setting [5], 1 of 6 on day 10 under setting [6], 0 of 6 on day 10 under setting [7] and 0 of 6 on day 10 under setting [8].

As to `O=c1cc(-c2ccccc2)[nH]c2c1CCCC2`, the T/C was 127 % of control [4 of 6 alive on day 10] (dose: 1200.0 mg/kg/injection, schedule: Q04DX003 (ip), vehicle: saline with Tween-80, evaluated on day 46) and 139 % of control (dose: 1200.0 mg/kg/injection, schedule: Q04DX003 (ip), vehicle: saline with Tween-80, evaluated on day 60). In addition, the survivor count (dose: 2000.0 mg/kg/injection, schedule: Q04DX003 (ip), vehicle: saline with Tween-80) is on record as 4 of 6 on day 10.

As for `CCOC(=O)/N=[N+](\[O-])c1ccccc1`, the survivor count by setting is: (dose: 6.25 mg/kg/injection, schedule: Q04DX003 (ip), vehicle: saline with Tween-80) 6 of 6 on day 10; (dose: 12.5 mg/kg/injection, schedule: Q04DX003 (ip), vehicle: saline with Tween-80) 4 of 6 on day 10; under setting [2], 4 of 6 on day 10; under setting [1], 2 of 6 on day 10; under setting [3], 0 of 6 on day 10.

For the compound `O=C(O)C1CC(O)CN1` (configuration not stated), under “dose: 150.0 mg/kg/injection, schedule: Q04DX003 (ip), vehicle: saline”, the T/C is 129 % of control.

Take `CN(C)C(=O)SC1=C(c2c(Cl)cccc2Cl)C(=O)c2ccccc21`: the survivor count (dose: 1200.0 mg/kg/injection, schedule: Q04DX003 (ip), vehicle: Klucel (hydroxypropylcellulose) (HPC)) is recorded as 2 of 4 on day 10.

For the compound `COC1=C(OC)C(=O)C(N(C)C)=C(CO)C1=O`, the survivor count (dose: 400.0 mg/kg/injection, schedule: Q04DX003 (ip), vehicle: saline) is listed as 0 of 6 on day 10.

On to `CC(=O)O[C@H]1C(=O)[C@@]2(C)C(C(OC(=O)c3ccccc3)[C@]3(O)C[C@H](OC(=O)C(OC(=O)CCCC(=O)NCCCN(C)C)C(NC(=O)c4ccccc4)c4ccccc4)C(C)=C1C3(C)C)C1(OC(C)=O)COC1C[C@@H]2O` (some centres not stated), for which the T/C reads like this: (dose: 2.5 mg/kg/injection, schedule: Q01DX009 (ip), vehicle: water) 139 % of control; (dose: 5.0 mg/kg/injection, schedule: Q01DX009 (ip), vehicle: water) 149 % of control. The survivor count (dose: 40.0 mg/kg/injection, schedule: Q01DX009 (ip), vehicle: water) was 7 of 10 on day 10 and 9 of 10 on day 14.

For `C[n+]1c(-c2ccc(NC(=O)c3ccc(C(=O)Nc4ccc(-c5cn6ccccc6[n+]5C)cc4)cc3)cc2)cn2ccccc21`, the survivor count under setting [3] is reported as 6 of 6 on day 10 and the survivor count (dose: 200.0 mg/kg/injection, schedule: Q04DX003 (ip), vehicle: saline with Tween-80) is 5 of 6 on day 10.

For the origin of these results see PubChem BioAssay AID280 (DTP/NCI, 2004).
